Results from the supplement of paper PMC6411743.
± gives the standard deviation of the averaged measurements. The list shows a part of the results, in another mix than the full data.

Amino acid sequences for entries named in this document (tags omitted). A change or cut given only in a name is not applied to a line headed by its entry.
UniProt Q9BQS8: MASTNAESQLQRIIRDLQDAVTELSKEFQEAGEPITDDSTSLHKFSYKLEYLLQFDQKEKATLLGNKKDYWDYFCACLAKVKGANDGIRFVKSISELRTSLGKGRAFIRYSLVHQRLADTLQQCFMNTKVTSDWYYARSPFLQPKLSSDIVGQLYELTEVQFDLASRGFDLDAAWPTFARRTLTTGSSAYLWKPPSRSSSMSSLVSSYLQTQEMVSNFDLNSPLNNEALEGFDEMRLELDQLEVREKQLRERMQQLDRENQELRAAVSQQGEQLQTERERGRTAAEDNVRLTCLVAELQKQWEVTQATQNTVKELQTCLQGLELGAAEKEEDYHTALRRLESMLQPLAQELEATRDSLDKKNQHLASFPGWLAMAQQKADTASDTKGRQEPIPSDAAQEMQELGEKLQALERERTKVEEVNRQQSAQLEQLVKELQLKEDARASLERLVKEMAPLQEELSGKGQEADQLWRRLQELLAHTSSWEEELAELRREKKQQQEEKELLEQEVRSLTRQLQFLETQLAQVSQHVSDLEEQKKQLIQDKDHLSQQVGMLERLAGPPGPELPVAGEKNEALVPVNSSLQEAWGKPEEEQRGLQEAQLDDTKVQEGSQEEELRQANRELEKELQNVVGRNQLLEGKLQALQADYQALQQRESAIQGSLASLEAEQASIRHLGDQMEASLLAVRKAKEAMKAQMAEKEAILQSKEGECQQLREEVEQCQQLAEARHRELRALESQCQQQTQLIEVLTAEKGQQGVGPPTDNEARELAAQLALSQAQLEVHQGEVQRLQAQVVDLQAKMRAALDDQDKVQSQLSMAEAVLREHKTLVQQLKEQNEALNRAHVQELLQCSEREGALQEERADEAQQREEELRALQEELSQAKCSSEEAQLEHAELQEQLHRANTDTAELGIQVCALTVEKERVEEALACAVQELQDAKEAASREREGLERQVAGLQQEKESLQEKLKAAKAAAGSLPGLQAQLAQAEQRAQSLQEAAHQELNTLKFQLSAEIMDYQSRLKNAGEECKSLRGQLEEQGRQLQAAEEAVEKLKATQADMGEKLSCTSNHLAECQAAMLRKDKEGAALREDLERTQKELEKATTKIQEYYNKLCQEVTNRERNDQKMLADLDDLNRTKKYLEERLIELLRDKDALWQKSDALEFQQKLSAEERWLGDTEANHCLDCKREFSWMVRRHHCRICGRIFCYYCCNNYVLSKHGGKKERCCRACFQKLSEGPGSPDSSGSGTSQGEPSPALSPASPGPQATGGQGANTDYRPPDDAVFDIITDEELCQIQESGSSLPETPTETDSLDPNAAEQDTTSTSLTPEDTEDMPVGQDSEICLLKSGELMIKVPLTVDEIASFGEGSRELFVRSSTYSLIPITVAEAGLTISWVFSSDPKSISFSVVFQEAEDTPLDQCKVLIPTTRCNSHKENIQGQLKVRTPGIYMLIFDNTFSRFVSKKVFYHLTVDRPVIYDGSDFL
UniProt Q96S55: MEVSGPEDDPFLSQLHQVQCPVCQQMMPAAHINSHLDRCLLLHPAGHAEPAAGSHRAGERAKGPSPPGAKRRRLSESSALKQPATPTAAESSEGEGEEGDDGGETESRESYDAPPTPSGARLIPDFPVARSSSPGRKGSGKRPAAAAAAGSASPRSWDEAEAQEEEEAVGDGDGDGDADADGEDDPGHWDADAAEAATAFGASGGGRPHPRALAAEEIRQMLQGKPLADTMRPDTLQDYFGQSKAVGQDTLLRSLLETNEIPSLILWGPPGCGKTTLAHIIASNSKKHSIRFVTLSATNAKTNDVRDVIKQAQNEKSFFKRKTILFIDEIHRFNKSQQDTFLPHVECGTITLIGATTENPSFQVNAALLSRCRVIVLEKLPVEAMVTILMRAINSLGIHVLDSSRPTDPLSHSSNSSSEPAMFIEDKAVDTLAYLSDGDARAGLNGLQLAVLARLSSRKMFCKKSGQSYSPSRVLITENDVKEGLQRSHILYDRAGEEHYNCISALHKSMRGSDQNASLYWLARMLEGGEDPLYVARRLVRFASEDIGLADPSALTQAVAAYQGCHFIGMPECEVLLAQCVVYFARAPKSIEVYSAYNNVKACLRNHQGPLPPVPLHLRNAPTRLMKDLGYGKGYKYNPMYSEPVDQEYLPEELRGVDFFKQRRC
UniProt Q96SZ5, whole entry: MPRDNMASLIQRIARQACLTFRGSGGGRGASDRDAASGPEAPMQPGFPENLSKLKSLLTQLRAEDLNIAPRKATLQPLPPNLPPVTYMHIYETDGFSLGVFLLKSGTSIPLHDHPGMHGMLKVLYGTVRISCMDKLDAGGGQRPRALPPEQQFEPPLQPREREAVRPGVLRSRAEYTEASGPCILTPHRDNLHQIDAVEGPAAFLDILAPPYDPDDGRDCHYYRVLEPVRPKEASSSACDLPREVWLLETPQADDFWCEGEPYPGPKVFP
UniProt Q9BTT4: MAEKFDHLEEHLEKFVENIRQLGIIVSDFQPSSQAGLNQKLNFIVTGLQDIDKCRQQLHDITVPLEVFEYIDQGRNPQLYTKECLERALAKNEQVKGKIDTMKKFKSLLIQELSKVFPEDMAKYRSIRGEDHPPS
UniProt Q9BXK5, whole entry: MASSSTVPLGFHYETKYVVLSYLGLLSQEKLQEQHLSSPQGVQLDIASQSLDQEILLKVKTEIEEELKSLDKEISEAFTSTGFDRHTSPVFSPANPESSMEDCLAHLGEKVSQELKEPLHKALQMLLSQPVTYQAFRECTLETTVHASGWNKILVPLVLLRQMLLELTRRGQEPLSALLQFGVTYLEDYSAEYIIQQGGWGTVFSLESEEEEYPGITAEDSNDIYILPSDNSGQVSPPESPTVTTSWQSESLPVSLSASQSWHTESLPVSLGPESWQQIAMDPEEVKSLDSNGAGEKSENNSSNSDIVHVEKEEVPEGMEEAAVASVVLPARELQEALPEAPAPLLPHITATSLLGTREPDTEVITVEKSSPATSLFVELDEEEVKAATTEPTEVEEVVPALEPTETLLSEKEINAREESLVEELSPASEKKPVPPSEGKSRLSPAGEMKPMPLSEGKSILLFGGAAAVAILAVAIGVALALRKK
UniProt Q96SB8: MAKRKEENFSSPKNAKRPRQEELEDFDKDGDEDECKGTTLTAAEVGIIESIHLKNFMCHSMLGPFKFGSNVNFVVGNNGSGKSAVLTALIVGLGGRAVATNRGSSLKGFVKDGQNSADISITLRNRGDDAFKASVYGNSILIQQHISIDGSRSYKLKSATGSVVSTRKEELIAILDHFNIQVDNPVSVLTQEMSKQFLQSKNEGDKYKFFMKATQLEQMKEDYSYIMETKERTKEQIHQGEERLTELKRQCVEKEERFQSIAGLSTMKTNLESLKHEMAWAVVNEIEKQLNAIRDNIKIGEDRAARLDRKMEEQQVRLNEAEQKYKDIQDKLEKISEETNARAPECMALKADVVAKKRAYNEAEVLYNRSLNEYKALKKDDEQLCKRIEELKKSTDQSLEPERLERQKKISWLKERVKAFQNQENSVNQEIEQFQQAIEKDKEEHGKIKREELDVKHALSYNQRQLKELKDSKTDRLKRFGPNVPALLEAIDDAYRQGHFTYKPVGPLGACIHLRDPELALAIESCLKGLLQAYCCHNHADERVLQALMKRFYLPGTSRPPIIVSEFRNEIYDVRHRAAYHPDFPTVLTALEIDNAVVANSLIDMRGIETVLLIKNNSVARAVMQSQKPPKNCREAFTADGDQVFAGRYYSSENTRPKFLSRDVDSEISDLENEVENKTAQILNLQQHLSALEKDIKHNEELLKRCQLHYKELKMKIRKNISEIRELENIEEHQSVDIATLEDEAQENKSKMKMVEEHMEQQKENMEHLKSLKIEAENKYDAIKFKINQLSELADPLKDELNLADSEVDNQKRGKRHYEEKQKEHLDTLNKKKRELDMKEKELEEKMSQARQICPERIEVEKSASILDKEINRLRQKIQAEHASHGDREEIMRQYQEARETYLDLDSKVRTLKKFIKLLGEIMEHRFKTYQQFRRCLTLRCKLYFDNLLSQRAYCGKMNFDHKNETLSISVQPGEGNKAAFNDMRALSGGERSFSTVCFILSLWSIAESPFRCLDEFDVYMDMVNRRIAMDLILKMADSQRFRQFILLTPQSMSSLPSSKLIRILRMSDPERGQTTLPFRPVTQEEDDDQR
UniProt Q99707: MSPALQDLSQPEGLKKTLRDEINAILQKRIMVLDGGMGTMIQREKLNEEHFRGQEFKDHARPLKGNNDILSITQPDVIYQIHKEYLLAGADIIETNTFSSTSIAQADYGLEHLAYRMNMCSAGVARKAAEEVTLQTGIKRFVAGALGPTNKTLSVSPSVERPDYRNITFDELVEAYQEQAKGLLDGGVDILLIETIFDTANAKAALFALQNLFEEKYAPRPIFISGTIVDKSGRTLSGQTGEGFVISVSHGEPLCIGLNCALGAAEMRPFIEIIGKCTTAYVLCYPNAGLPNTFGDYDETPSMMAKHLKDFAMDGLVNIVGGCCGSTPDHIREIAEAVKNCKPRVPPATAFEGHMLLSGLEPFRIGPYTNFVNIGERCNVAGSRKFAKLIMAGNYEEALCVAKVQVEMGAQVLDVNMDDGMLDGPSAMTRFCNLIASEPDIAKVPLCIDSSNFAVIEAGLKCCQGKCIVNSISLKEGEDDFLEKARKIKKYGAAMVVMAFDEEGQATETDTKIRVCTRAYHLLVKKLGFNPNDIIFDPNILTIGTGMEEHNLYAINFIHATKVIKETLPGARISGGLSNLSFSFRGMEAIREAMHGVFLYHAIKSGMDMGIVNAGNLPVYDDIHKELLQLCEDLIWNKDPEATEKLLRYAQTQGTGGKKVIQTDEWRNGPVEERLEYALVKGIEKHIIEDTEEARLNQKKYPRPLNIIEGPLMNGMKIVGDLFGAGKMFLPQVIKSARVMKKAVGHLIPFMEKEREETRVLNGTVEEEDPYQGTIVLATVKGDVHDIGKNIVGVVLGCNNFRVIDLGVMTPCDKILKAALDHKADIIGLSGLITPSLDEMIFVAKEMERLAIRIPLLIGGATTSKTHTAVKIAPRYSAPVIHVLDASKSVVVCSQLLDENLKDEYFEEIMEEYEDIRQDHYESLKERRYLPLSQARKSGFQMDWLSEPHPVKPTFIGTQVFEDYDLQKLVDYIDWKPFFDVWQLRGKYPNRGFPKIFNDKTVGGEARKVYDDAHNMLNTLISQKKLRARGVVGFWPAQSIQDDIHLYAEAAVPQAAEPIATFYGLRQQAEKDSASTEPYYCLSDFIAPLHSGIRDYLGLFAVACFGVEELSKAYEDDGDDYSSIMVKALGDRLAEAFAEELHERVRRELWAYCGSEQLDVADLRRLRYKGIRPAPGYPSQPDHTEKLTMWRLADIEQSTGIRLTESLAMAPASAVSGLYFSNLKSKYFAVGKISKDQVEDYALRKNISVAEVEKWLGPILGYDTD
UniProt Q9BTT0: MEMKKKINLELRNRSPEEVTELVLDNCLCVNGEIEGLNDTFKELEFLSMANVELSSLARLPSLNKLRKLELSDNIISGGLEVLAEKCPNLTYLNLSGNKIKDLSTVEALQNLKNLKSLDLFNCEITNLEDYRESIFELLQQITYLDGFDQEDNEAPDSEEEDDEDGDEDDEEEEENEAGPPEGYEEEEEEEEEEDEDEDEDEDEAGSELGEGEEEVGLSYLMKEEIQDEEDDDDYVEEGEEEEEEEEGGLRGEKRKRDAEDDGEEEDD
UniProt Q99549: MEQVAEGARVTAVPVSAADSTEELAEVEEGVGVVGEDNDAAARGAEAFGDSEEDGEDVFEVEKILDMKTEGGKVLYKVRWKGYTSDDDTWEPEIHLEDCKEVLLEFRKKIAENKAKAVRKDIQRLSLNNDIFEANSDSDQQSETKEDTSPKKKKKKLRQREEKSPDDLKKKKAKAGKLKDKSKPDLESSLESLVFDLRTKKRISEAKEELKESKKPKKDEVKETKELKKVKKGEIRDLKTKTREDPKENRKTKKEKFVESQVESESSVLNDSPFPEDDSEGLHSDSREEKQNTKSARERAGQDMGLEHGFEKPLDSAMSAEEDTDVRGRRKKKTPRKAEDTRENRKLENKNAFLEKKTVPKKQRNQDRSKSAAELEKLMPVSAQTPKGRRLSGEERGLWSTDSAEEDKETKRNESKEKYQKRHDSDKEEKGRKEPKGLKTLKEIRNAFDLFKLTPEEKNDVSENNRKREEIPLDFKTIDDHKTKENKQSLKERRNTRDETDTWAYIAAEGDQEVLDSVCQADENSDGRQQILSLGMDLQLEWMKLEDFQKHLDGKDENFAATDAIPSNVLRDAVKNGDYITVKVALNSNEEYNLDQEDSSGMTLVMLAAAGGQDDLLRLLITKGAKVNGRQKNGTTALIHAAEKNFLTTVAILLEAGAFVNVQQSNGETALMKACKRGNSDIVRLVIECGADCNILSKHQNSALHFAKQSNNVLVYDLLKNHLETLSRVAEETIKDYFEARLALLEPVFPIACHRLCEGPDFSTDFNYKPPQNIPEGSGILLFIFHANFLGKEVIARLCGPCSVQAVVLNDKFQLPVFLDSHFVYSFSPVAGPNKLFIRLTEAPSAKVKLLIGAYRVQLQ

Compound: Nc1ncnc2c1ncn2[C@@H]1O[C@H](COP(=O)(O)OP(=O)(O)NP(=O)(O)O)[C@@H](O)[C@H]1O [adenylyl imidodiphosphate]
Test: NP40-soluble protein abundance relative to vehicle (solubility fold change) (ratio); higher = more soluble protein in presence of AMP-PNP
Outline: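 Values are fold changes against the detergent-processed vehicle, based on vsn-normalised intensities. Jurkat crude lysate was treated at eight concentrations from 0.1 to 10 mM (10 min at room temperature, then 3 min at 37 °C), solubilised with 0.8% NP40 and benzonase, ultracentrifuged and analysed by TMT-labelled LC-MS/MS over three independent experiments.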

Target	NP40-soluble protein abundance (concentration: 1mM)	NP40-soluble protein abundance (concentration: 2mM)	NP40-soluble protein abundance (concentration: 4mM)	NP40-soluble protein abundance (concentration: 6mM)	NP40-soluble protein abundance (concentration: 8mM)	NP40-soluble protein abundance (concentration: 10mM)
SPAG5 (UniProt Q96R06)	1 ± 0.029	1.03 ± 0.068	0.977 ± 0.024	0.946 ± 0.017	0.908 ± 0.02	0.933 ± 0.049
PARD6B (UniProt Q9BYG5)	1.013 ± 0.0096	0.998 ± 0.022	0.994 ± 0.024	0.986 ± 0.011	0.997 ± 0.029	0.984 ± 0.017
TMED9 (UniProt Q9BVK6)	0.959 ± 0.036	0.919 ± 0.026	0.91 ± 0.013	0.965 ± 0.056	0.97 ± 0.041	0.957 ± 0.013
UniProt Q9BRT2 and related entries	1.03 ± 0.022	1.13 ± 0.11	1.03 ± 0.016	1.0141 ± 0.00091	1.025 ± 0.0039	1.011 ± 0.0053
UniProt Q9BW85	1.03 ± 0.049	1.11 ± 0.097	1.03 ± 0.041	1.06 ± 0.028	1.03 ± 0.042	1.09 ± 0.056
RPAP1 (UniProt Q9BWH6)	1.02 ± 0.025	1.01 ± 0.039	1.05 ± 0.015	1.02 ± 0.021	1.019 ± 0.0088	0.995 ± 0.029
PDCD2L (UniProt Q9BRP1)	1.01 ± 0.035	1.03 ± 0.016	1.03 ± 0.035	1.02 ± 0.021	1.033 ± 0.0075	1.03 ± 0.024
UniProt Q9BQS8 and related entries	0.99 ± 0.062	1.03 ± 0.032	1 ± 0.026	0.976 ± 0.051	0.963 ± 0.038	0.97 ± 0.04
UniProt Q9BWS9 and related entries	0.953 ± 0.038	0.89 ± 0.066	0.955 ± 0.026	0.965 ± 0.022	0.9924 ± 0.0078	0.945 ± 0.016
UniProt Q9BQG0 and related entries	0.996 ± 0.055	0.979 ± 0.075	1.01 ± 0.057	1.04 ± 0.13	1.04 ± 0.11	1.04 ± 0.075
UniProt Q96ST2 and related entries	0.99 ± 0.041	1.04 ± 0.072	1 ± 0.024	1.06 ± 0.035	1.03 ± 0.042	1.08 ± 0.058
NAPG (UniProt Q99747)	1.013 ± 0.01	1.07 ± 0.057	0.9864 ± 0.0066	0.9833 ± 0.009	0.97 ± 0.029	0.964 ± 0.011
UniProt Q9BUB5 and related entries	1.06 ± 0.031	1.07 ± 0.026	1.08 ± 0.011	1.04 ± 0.047	1.05 ± 0.023	1.05 ± 0.032
SMAD5 (UniProt Q99717)	1.02 ± 0.018	1.016 ± 0.0063	1.03 ± 0.023	0.998 ± 0.011	1.026 ± 0.0052	1.03 ± 0.05
UniProt Q9BY12 and related entries	1.02 ± 0.028	1.02 ± 0.045	1.04 ± 0.05	1.07 ± 0.06	1.09 ± 0.08	1.09 ± 0.084
UniProt Q9BRR9-2|Q9BRR9-4|Q9BRR9-5|R4GN15	0.939 ± 0.033	0.943 ± 0.026	0.976 ± 0.028	0.993 ± 0.023	0.961 ± 0.013	0.984 ± 0.005
OSBPL1A (UniProt Q9BXW6)	1.04 ± 0.028	1.05 ± 0.058	1.06 ± 0.047	1.018 ± 0.0099	1 ± 0.023	1.02 ± 0.038
UniProt Q96S55 and related entries	0.995 ± 0.061	0.967 ± 0.057	0.951 ± 0.082	0.942 ± 0.08	0.933 ± 0.056	0.945 ± 0.077
UniProt Q9BV86	1.01 ± 0.052	0.941 ± 0.061	1.02 ± 0.033	0.971 ± 0.042	1 ± 0.064	0.954 ± 0.051
UniProt Q9BVS4 and related entries	0.966 ± 0.037	1.04 ± 0.031	1 ± 0.032	0.9674 ± 0.0025	0.977 ± 0.02	0.996 ± 0.026

A few values from above.
NP40-soluble protein abundance (concentration: 10mM) with OSBPL1A (UniProt Q9BXW6) reads 1.02 ± 0.038
NP40-soluble protein abundance (concentration: 6mM) with UniProt Q96S55 and related entries reads 0.942 ± 0.08

2 entries drawn at random from the list so far:
Target	NP40-soluble protein abundance (concentration: 1mM)	NP40-soluble protein abundance (concentration: 2mM)	NP40-soluble protein abundance (concentration: 4mM)	NP40-soluble protein abundance (concentration: 6mM)	NP40-soluble protein abundance (concentration: 8mM)	NP40-soluble protein abundance (concentration: 10mM)
UniProt Q96S55 and related entries	0.995 ± 0.061	0.967 ± 0.057	0.951 ± 0.082	0.942 ± 0.08	0.933 ± 0.056	0.945 ± 0.077
SPAG5 (UniProt Q96R06)	1 ± 0.029	1.03 ± 0.068	0.977 ± 0.024	0.946 ± 0.017	0.908 ± 0.02	0.933 ± 0.049

(further entries)

Target	NP40-soluble protein abundance (concentration: 1mM)	NP40-soluble protein abundance (concentration: 2mM)	NP40-soluble protein abundance (concentration: 4mM)	NP40-soluble protein abundance (concentration: 6mM)	NP40-soluble protein abundance (concentration: 8mM)	NP40-soluble protein abundance (concentration: 10mM)
ADO (UniProt Q96SZ5)	1.01 ± 0.036	1.04 ± 0.045	1.05 ± 0.029	1.04 ± 0.022	0.99 ± 0.039	1.04 ± 0.041
UniProt Q96TC7	0.993 ± 0.038	0.993 ± 0.035	0.992 ± 0.072	0.967 ± 0.072	0.944 ± 0.032	0.964 ± 0.041
C1orf50 (UniProt Q9BV19)	0.979 ± 0.015	0.9656 ± 0.009	0.979 ± 0.014	0.963 ± 0.036	0.98 ± 0.03	0.974 ± 0.044
UBAC1 (UniProt Q9BSL1)	0.965 ± 0.0098	1.01 ± 0.011	0.998 ± 0.028	0.955 ± 0.015	0.932 ± 0.036	0.933 ± 0.034
UniProt Q9BY44 and related entries	1.012 ± 0.0058	1.007 ± 0.0077	0.9922 ± 0.0079	1.03 ± 0.016	1.01 ± 0.022	1.02 ± 0.054
MED10 (UniProt Q9BTT4)	1.01 ± 0.031	1.04 ± 0.037	0.999 ± 0.047	1 ± 0.038	0.992 ± 0.041	0.992 ± 0.035
ALG1 (UniProt Q9BT22)	0.962 ± 0.035	0.895 ± 0.049	0.958 ± 0.035	0.922 ± 0.028	0.952 ± 0.035	0.896 ± 0.029
CARD11 (UniProt Q9BXL7)	0.948 ± 0.034	0.976 ± 0.019	0.96 ± 0.019	0.946 ± 0.055	0.914 ± 0.036	0.934 ± 0.04
SIKE1 (UniProt Q9BRV8)	1.02 ± 0.021	1.05 ± 0.014	1.01 ± 0.012	0.982 ± 0.0015	1.008 ± 0.01	1.02 ± 0.033
UniProt Q96RT1 and related entries	1.02 ± 0.022	1.026 ± 0.01	1.016 ± 0.007	0.988 ± 0.035	0.97 ± 0.011	0.9896 ± 0.0019
UniProt Q9BQI0 and related entries	0.991 ± 0.028	0.997 ± 0.027	0.98 ± 0.056	0.962 ± 0.034	0.971 ± 0.046	0.986 ± 0.041
MIPEP (UniProt Q99797)	0.995 ± 0.028	0.928 ± 0.061	0.998 ± 0.021	0.9715 ± 0.0032	0.978 ± 0.017	0.9411 ± 0.0032
TBCB (UniProt Q99426)	1 ± 0.022	0.963 ± 0.014	0.972 ± 0.035	1.03 ± 0.066	1.05 ± 0.063	1.02 ± 0.045
UniProt Q99490-2|F8VVT9 and related entries	0.976 ± 0.026	0.941 ± 0.056	1.02 ± 0.035	0.988 ± 0.046	1.01 ± 0.019	1.02 ± 0.042
CNPY3 (UniProt Q9BT09)	0.983 ± 0.012	1.03 ± 0.11	0.956 ± 0.029	0.971 ± 0.015	0.946 ± 0.018	0.947 ± 0.048
SEC62 (UniProt Q99442)	0.959 ± 0.058	0.955 ± 0.081	0.92 ± 0.032	0.978 ± 0.083	0.962 ± 0.037	0.973 ± 0.046
SPATA5L1 (UniProt Q9BVQ7)	1.07 ± 0.024	1.07 ± 0.068	1.14 ± 0.032	1.12 ± 0.083	1.17 ± 0.055	1.16 ± 0.13
UniProt Q9BYD6 and related entries	1.01 ± 0.064	1.03 ± 0.04	1.03 ± 0.099	1.06 ± 0.07	1.06 ± 0.071	1.13 ± 0.12
DOK1 (UniProt Q99704)	1.04 ± 0.019	1.02 ± 0.023	1.02 ± 0.053	0.985 ± 0.037	1.007 ± 0.01	1 ± 0.033
BCL2L13 (UniProt Q9BXK5)	1.02 ± 0.048	1.08 ± 0.023	1.04 ± 0.06	0.987 ± 0.021	0.964 ± 0.031	0.991 ± 0.032

Target	NP40-soluble protein abundance (concentration: 1mM)	NP40-soluble protein abundance (concentration: 2mM)	NP40-soluble protein abundance (concentration: 4mM)	NP40-soluble protein abundance (concentration: 6mM)	NP40-soluble protein abundance (concentration: 8mM)	NP40-soluble protein abundance (concentration: 10mM)
UniProt Q9BU76 and related entries	1.03 ± 0.04	1.04 ± 0.052	1 ± 0.067	1.01 ± 0.035	0.99 ± 0.031	0.989 ± 0.038
SMC6 (UniProt Q96SB8)	1.04 ± 0.019	1.06 ± 0.022	1.01 ± 0.031	1 ± 0.046	0.977 ± 0.041	1.05 ± 0.072
UniProt Q99707 and related entries	1.02 ± 0.034	0.97 ± 0.071	0.989 ± 0.041	0.936 ± 0.011	0.936 ± 0.012	0.932 ± 0.013
UniProt Q9BUH6	1.06 ± 0.024	1.11 ± 0.051	1.089 ± 0.007	1.11 ± 0.021	1.08 ± 0.023	1.1 ± 0.05
UniProt Q99828 and related entries	1.001 ± 0.0091	0.977 ± 0.03	0.993 ± 0.035	0.9794 ± 0.0058	0.949 ± 0.036	0.95 ± 0.025
UniProt Q9BRX8 and related entries	0.995 ± 0.032	0.943 ± 0.067	0.997 ± 0.017	0.966 ± 0.025	1 ± 0.02	0.921 ± 0.033
UniProt Q9BXI6 and related entries	0.989 ± 0.036	1.02 ± 0.037	1.01 ± 0.023	1.01 ± 0.011	1 ± 0.015	1.01 ± 0.024
UniProt Q96SK2 and related entries	0.99 ± 0.05	1.02 ± 0.049	1.02 ± 0.046	1.05 ± 0.048	1.05 ± 0.035	1.13 ± 0.061
UniProt Q9BXW7 and related entries	1.02 ± 0.033	0.944 ± 0.08	1.03 ± 0.038	0.98 ± 0.015	1.05 ± 0.046	0.953 ± 0.034
UniProt Q9BTT0 and related entries	1.01 ± 0.03	1.06 ± 0.084	0.964 ± 0.046	0.9461 ± 0.004	0.9134 ± 0.0026	0.907 ± 0.043
UniProt Q9BTX1 and related entries	1.02 ± 0.035	1.04 ± 0.018	1.02 ± 0.04	0.993 ± 0.034	1.03 ± 0.041	1.08 ± 0.085
UniProt Q99549 and related entries	1.03 ± 0.015	1.08 ± 0.053	1.05 ± 0.014	1.08 ± 0.052	1.048 ± 0.0015	1.12 ± 0.026
UniProt Q9BSJ8 and related entries	0.998 ± 0.036	0.925 ± 0.078	0.979 ± 0.012	0.9491 ± 0.0033	0.96 ± 0.014	0.912 ± 0.015
DCUN1D5 (UniProt Q9BTE7)	0.983 ± 0.041	0.966 ± 0.04	0.988 ± 0.015	0.986 ± 0.036	1.01 ± 0.033	0.97 ± 0.022
DDA1 (UniProt Q9BW61)	1.046 ± 0.0013	1.05 ± 0.049	1.022 ± 0.008	0.986 ± 0.013	0.972 ± 0.01	0.961 ± 0.015
UniProt Q99766	0.999 ± 0.019	0.959 ± 0.024	0.99 ± 0.044	0.967 ± 0.03	0.963 ± 0.018	0.979 ± 0.036
MRPL9 (UniProt Q9BYD2)	1.04 ± 0.13	0.967 ± 0.13	1.03 ± 0.075	0.982 ± 0.09	1.01 ± 0.072	0.972 ± 0.15
RANBP9 (UniProt Q96S59)	0.968 ± 0.061	0.971 ± 0.035	0.968 ± 0.069	0.978 ± 0.076	0.931 ± 0.057	0.968 ± 0.084
CCNL2 (UniProt Q96S94)	1 ± 0.046	1.05 ± 0.062	1.01 ± 0.012	1.02 ± 0.026	1.02 ± 0.023	1.01 ± 0.015
UniProt Q9BXS6 and related entries	0.955 ± 0.028	0.979 ± 0.017	0.962 ± 0.055	1 ± 0.047	1.01 ± 0.033	1.05 ± 0.05
